# Data published in PubChem BioAssay AID330 (DTP/NCI, 2004).
# The list shows only some results of the screen, not a fair sample: it is rich in T/C values a quarter to a half above the control, in often repeated tests (any T/C) and in doses without a T/C. Other doses and runs of a compound stand elsewhere. T/C: endpoint of the treated group in % of that of the vehicle group. Some entries give survivors of the animals treated and no T/C: the source files T/C as zero there, which appears to mark a toxic dose or a test without result, not a measured value. Some doses without a T/C left all or most animals alive at the check, yet need not have been tolerated: the source hardly ever lists a survival T/C far under the control, and the zero likely stands for such cases as well. Counts of survivors are from the toxicity check (mostly the fifth day) where no day follows; animals may have died later. Schedule codes are those of the source, read here as Q, the interval in days (D) or hours (H), X, the number of doses. Additions like (4×) stand for listed records that agree. Some doses were run more than once; their values stand side by side, smallest first. Where survival is the endpoint, this PubChem deposit counts one and a half times the control or more as active, and values a quarter to a half above the control carry no call in these data; other NCI protocols may use other cut-offs.
# Test system: P388 leukemia ip, CD2F1 mice, survival T/C
# Assay: NCI In Vivo Anticancer Drug Screen. Data for tumor model P388 Leukemia (intraperitoneal) in CD2F1 (CDF1) mice
# Conditions: T/C endpoint: median survival time, higher T/C = longer survival
# [1] = dose: 25.0 mg/kg/injection, schedule: Q01DX009 (ip), vehicle: saline with Tween-80
# [2] = dose: 50.0 mg/kg/injection, schedule: Q01DX009 (ip), vehicle: saline with Tween-80
# [3] = dose: 200.0 mg/kg/injection, schedule: Q04DX003 (ip), vehicle: saline with Tween-80
# [4] = dose: 200.0 mg/kg/injection, schedule: Q01DX009 (ip), vehicle: distilled water + Tween-80
# [5] = dose: 50.0 mg/kg/injection, schedule: Q01DX009 (ip), vehicle: saline
# [6] = dose: 100.0 mg/kg/injection, schedule: Q01DX009 (ip), vehicle: saline
# [7] = dose: 200.0 mg/kg/injection, schedule: Q01DX009 (ip), vehicle: saline
# [8] = dose: 240.0 mg/kg/injection, schedule: Q01DX005 (ip), vehicle: saline with Tween-80
# [9] = dose: 60.0 mg/kg/injection, schedule: Q01DX005 (ip), vehicle: saline
# [10] = dose: 120.0 mg/kg/injection, schedule: Q01DX005 (ip), vehicle: saline
# [11] = dose: 240.0 mg/kg/injection, schedule: Q01DX005 (ip), vehicle: saline
# [12] = dose: 200.0 mg/kg/injection, schedule: Q01DX005 (ip), vehicle: Klucel (hydroxypropylcellulose) (HPC)
compound,measurement,setting,value
NC(=S)N/N=C\c1ncnc2ccccc12,T/C,"dose: 8.0 mg/kg/injection, schedule: Q01DX009 (ip), vehicle: saline with Tween-80",136 % of control
same,T/C,[1],131 % of control
same,survivor count,[2],1 of 6
same,survivor count,"dose: 100.0 mg/kg/injection, schedule: Q04DX003 (ip), vehicle: saline with Tween-80",5 of 6
same,survivor count,[3],0 of 6
same,survivor count,"dose: 400.0 mg/kg/injection, schedule: Q04DX003 (ip), vehicle: saline with Tween-80",0 of 6
FC(F)(F)CO[Te](OCC(F)(F)F)(OCC(F)(F)F)OCC(F)(F)F,survivor count,"dose: 25.0 mg/kg/injection, schedule: Q01DX001 (ip), vehicle: saline with Tween-80",3 of 6
same,survivor count,"dose: 50.0 mg/kg/injection, schedule: Q01DX001 (ip), vehicle: saline with Tween-80",0 of 6 and 3 of 6
same,survivor count,"dose: 100.0 mg/kg/injection, schedule: Q01DX001 (ip), vehicle: saline with Tween-80",0 of 6
same,survivor count,"dose: 200.0 mg/kg/injection, schedule: Q01DX001 (ip), vehicle: saline with Tween-80",0 of 6
C/C=C\C(C)=C/C(C)C(=O)CC(O)CC1CC(=O)NC(=O)C1 (configuration not stated),survivor count,"dose: 50.0 mg/kg/injection, schedule: Q01DX009 (ip), vehicle: DMSO",4 of 6
same,survivor count,"dose: 100.0 mg/kg/injection, schedule: Q01DX009 (ip), vehicle: DMSO",4 of 6
same,survivor count,"dose: 200.0 mg/kg/injection, schedule: Q01DX009 (ip), vehicle: DMSO",0 of 6
same,survivor count,"dose: 400.0 mg/kg/injection, schedule: Q01DX009 (ip), vehicle: DMSO",0 of 6
O=C(C#Cc1ccccc1)c1cccnc1,survivor count,"dose: 50.0 mg/kg/injection, schedule: Q04DX003 (ip), vehicle: Klucel (hydroxypropylcellulose) (HPC)",0 of 6
same,survivor count,"dose: 100.0 mg/kg/injection, schedule: Q04DX003 (ip), vehicle: Klucel (hydroxypropylcellulose) (HPC)",0 of 6
same,survivor count,"dose: 200.0 mg/kg/injection, schedule: Q04DX003 (ip), vehicle: Klucel (hydroxypropylcellulose) (HPC)",0 of 6
same,survivor count,"dose: 400.0 mg/kg/injection, schedule: Q04DX003 (ip), vehicle: Klucel (hydroxypropylcellulose) (HPC)",0 of 6
CCOC(=O)c1ccc(NC(=O)Nc2n[nH]c(NC(=O)Nc3ccc(C(=O)OCC)cc3)n2)cc1,survivor count,[4],5 of 6
same,survivor count,"dose: 400.0 mg/kg/injection, schedule: Q01DX009 (ip), vehicle: distilled water + Tween-80",0 of 6
CCC[N+]1(CC)CCCCC1,survivor count,[5],2 of 6
same,survivor count,[6],0 of 6
same,survivor count,[7],0 of 6
COc1ccc2nc3cc(Cl)ccc3c(NC(C)CCCN(CCCl)CCCl)c2c1 (configuration not stated),survivor count,"dose: 5.0 mg/kg/injection, schedule: Q04DX003 (ip), vehicle: saline",2 of 6
same,survivor count,"dose: 10.0 mg/kg/injection, schedule: Q04DX003 (ip), vehicle: saline",1 of 6
same,survivor count,"dose: 20.0 mg/kg/injection, schedule: Q04DX003 (ip), vehicle: saline",0 of 6
O=CC(=O)c1cccc([N+](=O)[O-])c1,T/C,[1],127 % of control
same,T/C,[2],126 and 130 % of control
same,T/C,"dose: 100.0 mg/kg/injection, schedule: Q01DX009 (ip), vehicle: saline with Tween-80",126 and 130 % of control
same,survivor count,"dose: 200.0 mg/kg/injection, schedule: Q01DX009 (ip), vehicle: saline with Tween-80",5 of 6
CC/C(=N\NC(N)=NC)c1ccc(Cl)cc1,survivor count,"dose: 50.0 mg/kg/injection, schedule: Q04DX002 (ip), vehicle: saline",1 of 6
same,survivor count,"dose: 100.0 mg/kg/injection, schedule: Q04DX002 (ip), vehicle: saline",0 of 6
Cn1cnc([N+](=O)[O-])c1C(=O)O,survivor count,[7],5 of 6
COc1cc(C2CC(C)(OC)Oc3cc4c(cc32)OCO4)cc(OC)c1OC (configuration not stated),T/C,[8],130 % of control
same,survivor count,"dose: 480.0 mg/kg/injection, schedule: Q01DX005 (ip), vehicle: saline with Tween-80",0 of 6 and 3 of 6
CC1(c2ccccc2)CCCC(C#N)C1=N (configuration not stated),survivor count,"dose: 100.0 mg/kg/injection, schedule: Q01DX001 (ip), vehicle: Klucel (hydroxypropylcellulose) (HPC)",3 of 6
same,survivor count,"dose: 200.0 mg/kg/injection, schedule: Q01DX001 (ip), vehicle: Klucel (hydroxypropylcellulose) (HPC)",2 of 6
same,survivor count,"dose: 400.0 mg/kg/injection, schedule: Q01DX001 (ip), vehicle: Klucel (hydroxypropylcellulose) (HPC)",0 of 6
CC(C)Oc1nc(N2CCNCC2)nc2c1CCC2,survivor count,[9],4 of 6
same,survivor count,[10],0 of 6
same,survivor count,[11],0 of 6
O=P1(NNc2ncccn2)SC(NN=C2CCCCC2)=NC12CCCCC2 (configuration not stated),survivor count,"dose: 120.0 mg/kg/injection, schedule: Q01DX005 (ip), vehicle: Klucel (hydroxypropylcellulose) (HPC)",0 of 6
same,survivor count,"dose: 240.0 mg/kg/injection, schedule: Q01DX005 (ip), vehicle: Klucel (hydroxypropylcellulose) (HPC)",0 of 6
NCCc1nc(-c2nc(C(=O)Nc3ccccc3)cs2)cs1,survivor count,[4],0 of 6
CC(C)CCOCCOCCCN1C(=O)C2C3C=CC(C3)C2C1=O (configuration not stated),survivor count,[12],3 of 5
Brc1ccc(Nc2c3ccccc3nc3ccccc23)cc1,survivor count,[3],4 of 6
CCOC(=O)c1cnc(NCCCCCCCCNc2ncc(C(=O)OCC)c(=O)[nH]2)[nH]c1=O,survivor count,[5],6 of 6
same,survivor count,[6],6 of 6
C=C1C(=O)OC2/C=C(CO)/C=C\C3OC3(C)CC(OC(=O)/C(=C/C)CO)C12 (configuration not stated),T/C,"dose: 50.0 mg/kg/injection, schedule: Q01DX005 (ip), vehicle: Klucel (hydroxypropylcellulose) (HPC)",125 % of control
same,survivor count,"dose: 100.0 mg/kg/injection, schedule: Q01DX005 (ip), vehicle: Klucel (hydroxypropylcellulose) (HPC)",0 of 6 (2×)
same,survivor count,[12],0 of 6
CCN(CC)[P+](C1=C(Cl)C(=O)C(C#N)=C(C#N)C1=O)(N(CC)CC)N(CC)CC,survivor count,"dose: 12.5 mg/kg/injection, schedule: Q01DX009 (ip), vehicle: saline with Tween-80",6 of 6
CCOC(=O)c1c(N)c(=O)oc2c3c(c(O)cc12)OCO3,survivor count,[12],6 of 6
C/C(C#N)=C1/Nc2ccccc2NC1=O,survivor count,"dose: 100.0 mg/kg/injection, schedule: Q01DX009 (ip), vehicle: distilled water + Tween-80 + alcohol",6 of 6
COc1ccc(Oc2ccc(C(=O)C(CN(C)C)CN(C)C)cc2)cc1,T/C,"dose: 7.5 mg/kg/injection, schedule: Q01DX005 (ip), vehicle: saline",133 % of control
same,T/C,"dose: 15.0 mg/kg/injection, schedule: Q01DX005 (ip), vehicle: saline",131 and 133 % of control
same,survivor count,"dose: 30.0 mg/kg/injection, schedule: Q01DX005 (ip), vehicle: saline",6 of 6
same,survivor count,[9],0 of 6
same,survivor count,[10],0 of 6
same,survivor count,[11],0 of 6
O=C1Nc2ccc(Cl)cc2C(c2ccccc2Cl)=NC1O (configuration not stated),survivor count,"dose: 400.0 mg/kg/injection, schedule: Q01DX009 (ip), vehicle: Klucel (hydroxypropylcellulose) (HPC)",2 of 6
Cc1ccc(Cl)cc1S,survivor count,"dose: 200.0 mg/kg/injection, schedule: Q04DX003 (ip), vehicle: saline",6 of 6
CC(=O)O[C@H]1CC[C@@]2(C)C(CC[C@]3(C)C2CC=C2[C@@H]4CC(C)(C)CC[C@]4(C(=O)NCCN(C)C)CCC23C)C1(C)C (some centres not stated),survivor count,"dose: 120.0 mg/kg/injection, schedule: Q01DX005 (ip), vehicle: saline with Tween-80",1 of 6
same,survivor count,[8],0 of 6
CC(=O)OC1C(C)OC(OC(=O)C2CCC3C(C2)OC2(CC(OC(=O)/C=C/c4ccccc4)C(C)CO2)C32CO2)C(OC2OC(C)C(O)C(O)C2O)C1O (configuration not stated),T/C,"dose: 10.0 mg/kg/injection, schedule: Q01DX005 (ip), vehicle: saline + alcohol",130 % of control
same,T/C,"dose: 20.0 mg/kg/injection, schedule: Q01DX005 (ip), vehicle: saline + alcohol",126 and 130 % of control
same,T/C,"dose: 40.0 mg/kg/injection, schedule: Q01DX005 (ip), vehicle: saline + alcohol",127 % of control
